Experimental data reported in the supplement of paper PMC12889115.
This is one part of the list. These are raw signals, not scaled to a control.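 Primary screen: polymyxin B was added at a level permeabilizing Salmonella outer membranes while sparing inner membranes. DMSO wells, both with and without polymyxin B, established maximum growth. Plate-to-plate variation meant each plate was ranked on its own, and the lowest-OD600 compounds were selected as hits.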

Tested on: Salmonella enterica serovar Typhimurium SL1344
Experiment: bacterial growth OD600 after 18 h with compound and polymyxin B; higher = more bacterial growth (less inhibition)
Details: 50 µM, Mueller-Hinton broth

## C=CCC(=O)NC1CCCc2c1cnn2-c1ccc(C(C)(C)C)cc1 (centres undefined)
Polymyxin B 1 µg/mL
  bacterial growth OD600: 0.012

## O=C(CCOc1ccccc1)Nc1ccnn1C1CCN(CC2CC2)CC1
Polymyxin B 1 µg/mL
  bacterial growth OD600: 1.2

## CCN1CCN(C2(C(=O)N3CCCC(COC)C3)Cc3ccccc3C2)CC1 (centres undefined)
Polymyxin B 0.75 µg/mL
  bacterial growth OD600: 0.818

## CC(CCCC(C)(C)O)Nc1nncc(-c2ccc(C(F)(F)F)cc2)n1 (centres undefined)
Polymyxin B 0.75 µg/mL
  bacterial growth OD600: 0.285

## COc1ccc(Cl)cc1NC(=O)CCC1CCCN(C(=O)CN2CCCCC2=O)C1 (centres undefined)
Polymyxin B 1 µg/mL
  bacterial growth OD600: 0.943

## O=C(Nc1cnn(-c2ccc(C(=O)N3CCC(Oc4cccnc4)CC3)cc2)c1)c1ccoc1
Polymyxin B 0.75 µg/mL
  bacterial growth OD600: 0.919

## O=C(c1cccc2nccnc12)N1CCCC(Nc2ccc(F)c(F)c2)C1 (centres undefined)
Polymyxin B 1 µg/mL
  bacterial growth OD600: 0.827

## O=C(NC1CCCC1)c1cc(COc2ccc3c(c2)OCO3)[nH]n1
Polymyxin B 1 µg/mL
  bacterial growth OD600: 1.17

## CN(C)c1ncc(CN2CCCC(CNS(=O)(=O)Cc3ccccc3)C2)s1 (centres undefined)
Polymyxin B 0.75 µg/mL
  bacterial growth OD600: 0.865
